Source: article PMC9478954
A weaker result is weaker than the reference pair of the same experiment.

Protein sequences, listed by entry. Tags and fused reporters are not part of them. Residues count along the entry.
UniProt Q9UBB5, 151-411: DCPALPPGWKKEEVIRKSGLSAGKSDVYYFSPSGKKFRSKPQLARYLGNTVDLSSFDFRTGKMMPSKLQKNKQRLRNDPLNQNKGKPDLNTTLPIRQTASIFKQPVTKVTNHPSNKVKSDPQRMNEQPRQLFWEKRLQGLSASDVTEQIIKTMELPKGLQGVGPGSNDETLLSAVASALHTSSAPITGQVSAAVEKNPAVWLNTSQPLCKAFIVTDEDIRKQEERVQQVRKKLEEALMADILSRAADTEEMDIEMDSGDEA

Target: His10-MBD2 (UniProt Q9UBB5)
Test: QCM
Details: 500 nM DNA, both strands (M.SssI), 350 mM NaCl, 0.1% Triton X-100 (pH and temperature of BB not stated), 30 min, QCM 5th overtone, recombinant protein, residues 151-411, protein details: N-terminal His10

“CAGGCAGATGCGCAGCACCAAGCAGAGAGGCCAGGTGCAG (double strand) [Mal1C*pG]”: binds more weakly (notable binding only at MBD2 >239 ng/cm2, 5-methyl-C at the CpG, top strand C11, BB: 50 mM Tris).
“CAGGCAGATGCGCAGCACCAAGCAGAGAGGCCAGGTGCAGGATCCCAGGCCAGAACCAGGCCTGGCTCAGTGGAGCCGGAAGGGGCAGGC (double strand) [Mal2C*pG-far]”: binds more weakly (threshold MBD2 density ~159 ng/cm2, 5-methyl-C at all CpGs, top strand C11, C77, BB: 50 mM Tris).
“CAGGCAGATGCGCAGCACCAAGCAGAGAGGCCCGGTGCAGGATCCCAGGCCAGAACCAGGCCTGGCTCAGTGGAGCAGGAAGGGGCAGGC (double strand) [Mal2C*pG-close]”: binds more weakly (threshold MBD2 density ~159 ng/cm2, 5-methyl-C at all CpGs, top strand C11, C33, BB: 50 mM Tris).
